No constants are given. Whether binding was seen depends on the method and setting. Some results given as binding are weak or reduced against the parent protein; the word gives no strength.
Target: Histidine-tagged human CD3e protein (human) (UniProt P07766)
Test: SPR (Biacore), human CD3e

Sequences of proteins named here, by UniProt entry; tags and fusion partners are left off. A change or cut given only in a name is not applied to a line headed by its entry.
UniProt P07766: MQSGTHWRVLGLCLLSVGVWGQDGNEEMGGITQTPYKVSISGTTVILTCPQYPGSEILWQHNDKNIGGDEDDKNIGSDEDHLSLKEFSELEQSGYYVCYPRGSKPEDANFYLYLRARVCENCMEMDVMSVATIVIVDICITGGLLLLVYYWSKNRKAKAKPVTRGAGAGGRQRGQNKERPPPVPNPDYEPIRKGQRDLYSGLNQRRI

Binder	binding
10A4-H1K1-IgG1-LALA (antibody, V domains shown) VH: QVQLVQSGAEVKKPGASVKVSCKASGYTFTSYYIHWVRQAPGQRLEFIGWIYPGNVNAKYNEKFKGRVTITTDKSASTAYMELSSLRSEDTAVYYCAIKGGNYDWGQGTLVTVSS VL: DVVMTQSPLSLPVTLGQPASISCQSSQSLLDSDGKTYLNWLQQRPGQSPRRLIYLVSKLGSGVPDRFSGSGSGTDFTLKISRVEAEDVGVYYCWQGTHFPRTFGGGTKVEIK	binds
10A4-H1K2-IgG1-LALA (antibody, V domains shown) VH: QVQLVQSGAEVKKPGASVKVSCKASGYTFTSYYIHWVRQAPGQRLEFIGWIYPGNVNAKYNEKFKGRVTITTDKSASTAYMELSSLRSEDTAVYYCAIKGGNYDWGQGTLVTVSS VL: DVVMTQSPLSLPVTLGQPASISCQSSQSLLDSDGKTYLNWLQQRPGQSPRRLIYLVSKLGSGVPDRFSGSGSGTDFTLKISRVEAEDVGVYYCWQGTHFPRTFGGGTKLEIK	binds
10A4-H2K1-IgG1-LALA (antibody, V domains shown) VH: QVQLVQSGAEVKKPGASVKISCKASGYTFTSYYIHWVRQAPGQRLEFIGWIYPGNVNAKYNEKFKGRATITTDKSASTAYMELSSLRSEDTAVYYCAIKGGNYDWGQGTLVTVSS VL: DVVMTQSPLSLPVTLGQPASISCQSSQSLLDSDGKTYLNWLQQRPGQSPRRLIYLVSKLGSGVPDRFSGSGSGTDFTLKISRVEAEDVGVYYCWQGTHFPRTFGGGTKVEIK	binds
10A4-H2K2-IgG1-LALA (antibody, V domains shown) VH: QVQLVQSGAEVKKPGASVKISCKASGYTFTSYYIHWVRQAPGQRLEFIGWIYPGNVNAKYNEKFKGRATITTDKSASTAYMELSSLRSEDTAVYYCAIKGGNYDWGQGTLVTVSS VL: DVVMTQSPLSLPVTLGQPASISCQSSQSLLDSDGKTYLNWLQQRPGQSPRRLIYLVSKLGSGVPDRFSGSGSGTDFTLKISRVEAEDVGVYYCWQGTHFPRTFGGGTKLEIK	binds
10A4-H3K1-IgG1-LALA (antibody, V domains shown) VH: QVQLVQSGAEVKKPGASVKISCKASGYTFTSYYIHWVRQRPGQRLEFIGWIYPGNVNAKYNEKFKGRATLTTDKSASTAYMELSSLRSEDTAVYFCAIKGGNYDWGQGTLVTVSS VL: DVVMTQSPLSLPVTLGQPASISCQSSQSLLDSDGKTYLNWLQQRPGQSPRRLIYLVSKLGSGVPDRFSGSGSGTDFTLKISRVEAEDVGVYYCWQGTHFPRTFGGGTKVEIK	binds
10A4-H3K2-IgG1-LALA (antibody, V domains shown) VH: QVQLVQSGAEVKKPGASVKISCKASGYTFTSYYIHWVRQRPGQRLEFIGWIYPGNVNAKYNEKFKGRATLTTDKSASTAYMELSSLRSEDTAVYFCAIKGGNYDWGQGTLVTVSS VL: DVVMTQSPLSLPVTLGQPASISCQSSQSLLDSDGKTYLNWLQQRPGQSPRRLIYLVSKLGSGVPDRFSGSGSGTDFTLKISRVEAEDVGVYYCWQGTHFPRTFGGGTKLEIK	binds
10A4-H4K1-IgG1-LALA (antibody, V domains shown) VH: QVQLQQSGAEVKKPGASVRISCKASGYTFTSYYIHWVRQRPGQGLEFIGWIYPGNVNAKYNEKFKGRATLTTDKSASTAYMELSSLRSEDTAVYFCAIKGGNYDWGQGTLVTVSS VL: DVVMTQSPLSLPVTLGQPASISCQSSQSLLDSDGKTYLNWLQQRPGQSPRRLIYLVSKLGSGVPDRFSGSGSGTDFTLKISRVEAEDVGVYYCWQGTHFPRTFGGGTKVEIK	binds
10A4-H4K2-IgG1-LALA (antibody, V domains shown) VH: QVQLQQSGAEVKKPGASVRISCKASGYTFTSYYIHWVRQRPGQGLEFIGWIYPGNVNAKYNEKFKGRATLTTDKSASTAYMELSSLRSEDTAVYFCAIKGGNYDWGQGTLVTVSS VL: DVVMTQSPLSLPVTLGQPASISCQSSQSLLDSDGKTYLNWLQQRPGQSPRRLIYLVSKLGSGVPDRFSGSGSGTDFTLKISRVEAEDVGVYYCWQGTHFPRTFGGGTKLEIK	binds
1B1-H1K1-IgG1-LALA (antibody, V domains shown) VH: QVQLVQSGAEVKKPGASVKVSCKASGYTFTSYWMHWVRQAPGQGLEWIGNIYPDSGTTNYGEKFKTRVTLTVDTSTSTAYMELSSLRSEDTAVYYCTRDTSGQYYFDYWGQGTLVTVSS VL: DIVMTQSPDSLAVSAGERATMNCKSSQSLLNSRTRKNYLAWYQHKPGQSPKLLIYWASTRESGVPDRFSGSGSGTDFTLTISSLQAEDVAVYYCVQSFSLRAFGGGTKVEIK	binds
1B1-H1K2-IgG1-LALA (antibody, V domains shown) VH: QVQLVQSGAEVKKPGASVKVSCKASGYTFTSYWMHWVRQAPGQGLEWIGNIYPDSGTTNYGEKFKTRVTLTVDTSTSTAYMELSSLRSEDTAVYYCTRDTSGQYYFDYWGQGTLVTVSS VL: DIVMTQSPDSLAVSAGERVTMNCKSSQSLLNSRTRKNYLAWYQHKPGQSPKLLIYWASTRESGVPDRFSGSGSGTDFTLTISSLQAEDVAVYYCVQSFSLRAFGGGTKVEIK	binds
1B1-H1K3-IgG1-LALA (antibody, V domains shown) VH: QVQLVQSGAEVKKPGASVKVSCKASGYTFTSYWMHWVRQAPGQGLEWIGNIYPDSGTTNYGEKFKTRVTLTVDTSTSTAYMELSSLRSEDTAVYYCTRDTSGQYYFDYWGQGTLVTVSS VL: DIVMTQSPDSLAVSAGERVTMNCKSSQSLLNSRTRKNYLAWYQHKPGQSPKLLIYWASTRESGVPDRFSGSGSGTDFTLTISSVQAEDVAVYYCVQSFSLRAFGGGTKLEIK	binds
1B1-H2K1-IgG1-LALA (antibody, V domains shown) VH: QVQLVQSGAEVKKPGASVKLSCKASGYTFTSYWMHWVRQAPGQGLEWIGNIYPDSGTTNYGEKFKTRVTLTVDTSTSTAYMELSSLRSEDTAVYYCTRDTSGQYYFDYWGQGTLVTVSS VL: DIVMTQSPDSLAVSAGERATMNCKSSQSLLNSRTRKNYLAWYQHKPGQSPKLLIYWASTRESGVPDRFSGSGSGTDFTLTISSLQAEDVAVYYCVQSFSLRAFGGGTKVEIK	binds
1B1-H2K2-IgG1-LALA (antibody, V domains shown) VH: QVQLVQSGAEVKKPGASVKLSCKASGYTFTSYWMHWVRQAPGQGLEWIGNIYPDSGTTNYGEKFKTRVTLTVDTSTSTAYMELSSLRSEDTAVYYCTRDTSGQYYFDYWGQGTLVTVSS VL: DIVMTQSPDSLAVSAGERVTMNCKSSQSLLNSRTRKNYLAWYQHKPGQSPKLLIYWASTRESGVPDRFSGSGSGTDFTLTISSLQAEDVAVYYCVQSFSLRAFGGGTKVEIK	binds
1B1-H2K3-IgG1-LALA (antibody, V domains shown) VH: QVQLVQSGAEVKKPGASVKLSCKASGYTFTSYWMHWVRQAPGQGLEWIGNIYPDSGTTNYGEKFKTRVTLTVDTSTSTAYMELSSLRSEDTAVYYCTRDTSGQYYFDYWGQGTLVTVSS VL: DIVMTQSPDSLAVSAGERVTMNCKSSQSLLNSRTRKNYLAWYQHKPGQSPKLLIYWASTRESGVPDRFSGSGSGTDFTLTISSVQAEDVAVYYCVQSFSLRAFGGGTKLEIK	binds
1B1-H3K1-IgG1-LALA (antibody, V domains shown) VH: QVQLVQSGAEVKKPGASVKLSCKASGYTFTSYWMHWVRQRHGQGLEWIGNIYPDSGTTNYGEKFKTRVTLTVDTSTSTAYMELSSLRSEDTAVYYCTRDTSGQYYFDYWGQGTLVTVSS VL: DIVMTQSPDSLAVSAGERATMNCKSSQSLLNSRTRKNYLAWYQHKPGQSPKLLIYWASTRESGVPDRFSGSGSGTDFTLTISSLQAEDVAVYYCVQSFSLRAFGGGTKVEIK	binds
1B1-H3K2-IgG1-LALA (antibody, V domains shown) VH: QVQLVQSGAEVKKPGASVKLSCKASGYTFTSYWMHWVRQRHGQGLEWIGNIYPDSGTTNYGEKFKTRVTLTVDTSTSTAYMELSSLRSEDTAVYYCTRDTSGQYYFDYWGQGTLVTVSS VL: DIVMTQSPDSLAVSAGERVTMNCKSSQSLLNSRTRKNYLAWYQHKPGQSPKLLIYWASTRESGVPDRFSGSGSGTDFTLTISSLQAEDVAVYYCVQSFSLRAFGGGTKVEIK	binds
1B1-H3K3-IgG1-LALA (antibody, V domains shown) VH: QVQLVQSGAEVKKPGASVKLSCKASGYTFTSYWMHWVRQRHGQGLEWIGNIYPDSGTTNYGEKFKTRVTLTVDTSTSTAYMELSSLRSEDTAVYYCTRDTSGQYYFDYWGQGTLVTVSS VL: DIVMTQSPDSLAVSAGERVTMNCKSSQSLLNSRTRKNYLAWYQHKPGQSPKLLIYWASTRESGVPDRFSGSGSGTDFTLTISSVQAEDVAVYYCVQSFSLRAFGGGTKLEIK	binds
1B1-H4K1-IgG1-LALA (antibody, V domains shown) VH: QVQLVQSGAEVVKPGASVKLSCKASGYTFTSYWMHWVRQRHGQGLEWIGNIYPDSGTTNYGEKFKTRGTLTVDTSTSTAYMELSSLRSEDTAVYYCTRDTSGQYYFDYWGQGTLVTVSS VL: DIVMTQSPDSLAVSAGERATMNCKSSQSLLNSRTRKNYLAWYQHKPGQSPKLLIYWASTRESGVPDRFSGSGSGTDFTLTISSLQAEDVAVYYCVQSFSLRAFGGGTKVEIK	binds
1B1-H4K2-IgG1-LALA (antibody, V domains shown) VH: QVQLVQSGAEVVKPGASVKLSCKASGYTFTSYWMHWVRQRHGQGLEWIGNIYPDSGTTNYGEKFKTRGTLTVDTSTSTAYMELSSLRSEDTAVYYCTRDTSGQYYFDYWGQGTLVTVSS VL: DIVMTQSPDSLAVSAGERVTMNCKSSQSLLNSRTRKNYLAWYQHKPGQSPKLLIYWASTRESGVPDRFSGSGSGTDFTLTISSLQAEDVAVYYCVQSFSLRAFGGGTKVEIK	binds
1B1-H4K3-IgG1-LALA (antibody, V domains shown) VH: QVQLVQSGAEVVKPGASVKLSCKASGYTFTSYWMHWVRQRHGQGLEWIGNIYPDSGTTNYGEKFKTRGTLTVDTSTSTAYMELSSLRSEDTAVYYCTRDTSGQYYFDYWGQGTLVTVSS VL: DIVMTQSPDSLAVSAGERVTMNCKSSQSLLNSRTRKNYLAWYQHKPGQSPKLLIYWASTRESGVPDRFSGSGSGTDFTLTISSVQAEDVAVYYCVQSFSLRAFGGGTKLEIK	binds

Source: patent publication US20210269525A1
